The supplement of paper PMC12067093, “Discovery and optimisation of a covalent ligand for TRIM25 and its application to targeted protein ubiquitination” (Chemical Science, 2025)
This is one part of the list.

Chains of the proteins cited; added tags and fusions are not shown. Lines headed by an entry give the natural chain unless they say otherwise; changes in a name come on top.
UniProt P05107, whole entry, looked up: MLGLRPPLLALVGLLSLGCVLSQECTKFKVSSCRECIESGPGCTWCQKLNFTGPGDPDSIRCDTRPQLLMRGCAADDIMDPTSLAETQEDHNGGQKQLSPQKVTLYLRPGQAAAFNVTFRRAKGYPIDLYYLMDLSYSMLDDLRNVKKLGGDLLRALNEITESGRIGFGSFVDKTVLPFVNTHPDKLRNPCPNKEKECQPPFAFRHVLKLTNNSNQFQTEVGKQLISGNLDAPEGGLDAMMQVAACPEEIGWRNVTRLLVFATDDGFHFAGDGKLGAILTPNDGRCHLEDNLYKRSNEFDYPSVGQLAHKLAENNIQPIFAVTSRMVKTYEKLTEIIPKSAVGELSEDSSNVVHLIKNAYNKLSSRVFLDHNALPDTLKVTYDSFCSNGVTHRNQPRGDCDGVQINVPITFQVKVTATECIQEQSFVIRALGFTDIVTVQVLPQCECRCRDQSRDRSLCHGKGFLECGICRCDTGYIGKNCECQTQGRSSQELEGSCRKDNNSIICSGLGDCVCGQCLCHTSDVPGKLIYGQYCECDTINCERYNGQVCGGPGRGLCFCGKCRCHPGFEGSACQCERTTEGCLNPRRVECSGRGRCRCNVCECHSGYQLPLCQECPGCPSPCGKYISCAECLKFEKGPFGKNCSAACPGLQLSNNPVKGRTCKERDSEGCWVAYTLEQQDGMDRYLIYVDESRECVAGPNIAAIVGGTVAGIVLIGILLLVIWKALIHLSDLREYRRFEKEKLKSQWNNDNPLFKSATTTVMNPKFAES
UniProt Q9UL03, whole entry, looked up: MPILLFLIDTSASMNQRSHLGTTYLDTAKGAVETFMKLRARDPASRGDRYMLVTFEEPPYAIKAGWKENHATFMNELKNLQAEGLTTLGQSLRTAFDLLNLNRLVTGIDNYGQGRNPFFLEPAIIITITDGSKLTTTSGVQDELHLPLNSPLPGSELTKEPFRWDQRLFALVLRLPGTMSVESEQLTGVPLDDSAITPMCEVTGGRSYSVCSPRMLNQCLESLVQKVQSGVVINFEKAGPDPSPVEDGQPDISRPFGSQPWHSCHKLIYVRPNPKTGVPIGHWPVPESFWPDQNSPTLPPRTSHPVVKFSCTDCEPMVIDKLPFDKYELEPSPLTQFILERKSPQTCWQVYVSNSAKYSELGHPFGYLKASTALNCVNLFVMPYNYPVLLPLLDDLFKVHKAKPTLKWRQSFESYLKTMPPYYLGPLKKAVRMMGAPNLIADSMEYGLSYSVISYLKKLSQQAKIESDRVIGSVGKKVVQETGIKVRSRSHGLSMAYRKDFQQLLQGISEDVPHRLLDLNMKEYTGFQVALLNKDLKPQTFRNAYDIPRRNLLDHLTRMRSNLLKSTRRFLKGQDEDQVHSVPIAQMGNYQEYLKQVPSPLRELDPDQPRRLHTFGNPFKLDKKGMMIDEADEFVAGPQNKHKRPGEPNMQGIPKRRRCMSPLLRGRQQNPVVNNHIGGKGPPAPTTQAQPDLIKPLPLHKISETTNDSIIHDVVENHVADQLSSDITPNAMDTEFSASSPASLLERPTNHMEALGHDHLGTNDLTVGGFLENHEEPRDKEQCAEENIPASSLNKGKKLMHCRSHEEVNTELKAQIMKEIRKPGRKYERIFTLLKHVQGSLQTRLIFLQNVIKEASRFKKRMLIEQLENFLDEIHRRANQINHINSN
UniProt Q6P9B9, whole entry, looked up: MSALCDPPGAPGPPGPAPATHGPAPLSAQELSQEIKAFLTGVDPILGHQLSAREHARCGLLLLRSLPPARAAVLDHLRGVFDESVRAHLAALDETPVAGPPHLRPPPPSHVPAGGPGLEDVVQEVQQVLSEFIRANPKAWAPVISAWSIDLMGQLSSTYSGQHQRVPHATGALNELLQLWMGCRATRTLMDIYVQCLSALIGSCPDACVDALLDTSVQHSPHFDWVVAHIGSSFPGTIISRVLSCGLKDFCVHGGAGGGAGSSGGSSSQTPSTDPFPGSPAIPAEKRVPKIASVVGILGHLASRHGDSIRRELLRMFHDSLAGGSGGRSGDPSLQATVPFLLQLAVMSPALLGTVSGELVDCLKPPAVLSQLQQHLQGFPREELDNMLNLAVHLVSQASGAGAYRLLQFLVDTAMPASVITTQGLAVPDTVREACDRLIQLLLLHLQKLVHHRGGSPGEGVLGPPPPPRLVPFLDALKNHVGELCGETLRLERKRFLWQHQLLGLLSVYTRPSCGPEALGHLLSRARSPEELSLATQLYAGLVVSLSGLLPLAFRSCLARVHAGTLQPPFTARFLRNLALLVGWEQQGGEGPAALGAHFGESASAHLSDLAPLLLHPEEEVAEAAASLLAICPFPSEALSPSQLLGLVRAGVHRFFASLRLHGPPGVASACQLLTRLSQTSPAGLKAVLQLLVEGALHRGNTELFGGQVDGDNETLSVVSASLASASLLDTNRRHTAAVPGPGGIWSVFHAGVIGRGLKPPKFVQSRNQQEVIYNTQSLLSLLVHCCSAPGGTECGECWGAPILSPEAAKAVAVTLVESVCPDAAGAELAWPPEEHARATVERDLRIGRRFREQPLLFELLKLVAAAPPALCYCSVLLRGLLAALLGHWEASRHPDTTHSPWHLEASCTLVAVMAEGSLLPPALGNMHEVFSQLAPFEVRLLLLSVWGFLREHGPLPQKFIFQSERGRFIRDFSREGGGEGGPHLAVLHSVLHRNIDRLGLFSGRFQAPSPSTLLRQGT
UniProt Q9H0H0, whole entry, looked up: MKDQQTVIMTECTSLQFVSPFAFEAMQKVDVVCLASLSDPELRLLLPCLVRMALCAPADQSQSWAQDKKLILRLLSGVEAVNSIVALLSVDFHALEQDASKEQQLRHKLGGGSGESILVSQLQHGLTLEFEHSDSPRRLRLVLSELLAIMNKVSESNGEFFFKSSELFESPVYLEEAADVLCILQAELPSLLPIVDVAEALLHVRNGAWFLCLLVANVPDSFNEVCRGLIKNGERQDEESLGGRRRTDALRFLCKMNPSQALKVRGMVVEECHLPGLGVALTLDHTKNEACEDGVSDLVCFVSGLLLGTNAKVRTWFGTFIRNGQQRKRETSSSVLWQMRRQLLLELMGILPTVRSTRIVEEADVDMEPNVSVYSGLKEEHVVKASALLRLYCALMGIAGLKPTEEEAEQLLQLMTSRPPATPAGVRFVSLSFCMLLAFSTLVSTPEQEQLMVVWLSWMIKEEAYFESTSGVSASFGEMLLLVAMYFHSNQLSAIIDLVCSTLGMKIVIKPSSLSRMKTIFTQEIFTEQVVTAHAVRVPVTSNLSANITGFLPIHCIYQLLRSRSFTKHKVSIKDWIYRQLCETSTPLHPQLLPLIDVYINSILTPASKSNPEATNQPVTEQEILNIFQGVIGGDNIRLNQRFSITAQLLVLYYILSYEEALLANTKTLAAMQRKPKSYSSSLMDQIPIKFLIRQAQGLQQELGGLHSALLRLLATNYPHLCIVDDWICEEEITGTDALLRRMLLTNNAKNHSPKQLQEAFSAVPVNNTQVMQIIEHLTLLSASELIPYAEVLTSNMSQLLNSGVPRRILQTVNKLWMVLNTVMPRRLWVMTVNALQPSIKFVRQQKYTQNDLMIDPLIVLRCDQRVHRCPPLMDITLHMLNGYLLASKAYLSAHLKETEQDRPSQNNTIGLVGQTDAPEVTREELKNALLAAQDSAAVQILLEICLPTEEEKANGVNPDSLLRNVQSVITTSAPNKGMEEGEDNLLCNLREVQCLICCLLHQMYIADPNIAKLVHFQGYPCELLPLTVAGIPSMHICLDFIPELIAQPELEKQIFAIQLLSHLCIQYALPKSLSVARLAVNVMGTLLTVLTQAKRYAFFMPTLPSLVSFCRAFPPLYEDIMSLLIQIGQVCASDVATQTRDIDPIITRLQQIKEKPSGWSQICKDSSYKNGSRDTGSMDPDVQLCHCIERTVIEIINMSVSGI
UniProt Q9Y2H2: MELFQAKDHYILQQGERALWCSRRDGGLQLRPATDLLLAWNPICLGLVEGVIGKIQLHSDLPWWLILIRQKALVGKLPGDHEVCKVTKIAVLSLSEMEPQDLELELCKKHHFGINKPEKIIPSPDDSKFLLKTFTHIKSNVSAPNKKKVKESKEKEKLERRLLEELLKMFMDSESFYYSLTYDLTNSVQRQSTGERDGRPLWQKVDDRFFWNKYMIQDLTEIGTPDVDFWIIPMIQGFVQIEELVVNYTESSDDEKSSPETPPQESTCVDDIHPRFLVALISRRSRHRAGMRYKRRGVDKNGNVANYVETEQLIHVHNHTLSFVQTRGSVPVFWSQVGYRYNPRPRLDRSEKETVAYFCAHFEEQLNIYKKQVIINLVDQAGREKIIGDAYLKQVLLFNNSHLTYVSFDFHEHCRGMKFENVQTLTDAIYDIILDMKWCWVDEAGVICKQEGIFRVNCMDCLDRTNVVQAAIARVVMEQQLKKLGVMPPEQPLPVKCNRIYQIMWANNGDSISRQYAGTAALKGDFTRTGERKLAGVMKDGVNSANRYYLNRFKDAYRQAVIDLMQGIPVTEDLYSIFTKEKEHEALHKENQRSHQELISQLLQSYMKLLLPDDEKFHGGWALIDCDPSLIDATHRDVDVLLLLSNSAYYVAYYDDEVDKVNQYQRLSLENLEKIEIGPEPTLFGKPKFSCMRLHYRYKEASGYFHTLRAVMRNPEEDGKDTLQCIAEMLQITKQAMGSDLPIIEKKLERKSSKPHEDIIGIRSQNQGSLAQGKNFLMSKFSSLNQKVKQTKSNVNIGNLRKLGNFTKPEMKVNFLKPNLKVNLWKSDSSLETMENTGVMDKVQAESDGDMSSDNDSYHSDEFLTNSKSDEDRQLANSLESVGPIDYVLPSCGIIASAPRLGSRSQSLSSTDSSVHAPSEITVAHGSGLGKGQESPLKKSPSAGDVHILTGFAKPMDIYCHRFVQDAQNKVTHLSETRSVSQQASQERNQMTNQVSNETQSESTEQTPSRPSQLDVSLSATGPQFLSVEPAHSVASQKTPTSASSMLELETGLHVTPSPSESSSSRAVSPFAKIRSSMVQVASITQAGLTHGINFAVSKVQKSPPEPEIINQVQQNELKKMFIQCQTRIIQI
UniProt P06213, whole entry, looked up: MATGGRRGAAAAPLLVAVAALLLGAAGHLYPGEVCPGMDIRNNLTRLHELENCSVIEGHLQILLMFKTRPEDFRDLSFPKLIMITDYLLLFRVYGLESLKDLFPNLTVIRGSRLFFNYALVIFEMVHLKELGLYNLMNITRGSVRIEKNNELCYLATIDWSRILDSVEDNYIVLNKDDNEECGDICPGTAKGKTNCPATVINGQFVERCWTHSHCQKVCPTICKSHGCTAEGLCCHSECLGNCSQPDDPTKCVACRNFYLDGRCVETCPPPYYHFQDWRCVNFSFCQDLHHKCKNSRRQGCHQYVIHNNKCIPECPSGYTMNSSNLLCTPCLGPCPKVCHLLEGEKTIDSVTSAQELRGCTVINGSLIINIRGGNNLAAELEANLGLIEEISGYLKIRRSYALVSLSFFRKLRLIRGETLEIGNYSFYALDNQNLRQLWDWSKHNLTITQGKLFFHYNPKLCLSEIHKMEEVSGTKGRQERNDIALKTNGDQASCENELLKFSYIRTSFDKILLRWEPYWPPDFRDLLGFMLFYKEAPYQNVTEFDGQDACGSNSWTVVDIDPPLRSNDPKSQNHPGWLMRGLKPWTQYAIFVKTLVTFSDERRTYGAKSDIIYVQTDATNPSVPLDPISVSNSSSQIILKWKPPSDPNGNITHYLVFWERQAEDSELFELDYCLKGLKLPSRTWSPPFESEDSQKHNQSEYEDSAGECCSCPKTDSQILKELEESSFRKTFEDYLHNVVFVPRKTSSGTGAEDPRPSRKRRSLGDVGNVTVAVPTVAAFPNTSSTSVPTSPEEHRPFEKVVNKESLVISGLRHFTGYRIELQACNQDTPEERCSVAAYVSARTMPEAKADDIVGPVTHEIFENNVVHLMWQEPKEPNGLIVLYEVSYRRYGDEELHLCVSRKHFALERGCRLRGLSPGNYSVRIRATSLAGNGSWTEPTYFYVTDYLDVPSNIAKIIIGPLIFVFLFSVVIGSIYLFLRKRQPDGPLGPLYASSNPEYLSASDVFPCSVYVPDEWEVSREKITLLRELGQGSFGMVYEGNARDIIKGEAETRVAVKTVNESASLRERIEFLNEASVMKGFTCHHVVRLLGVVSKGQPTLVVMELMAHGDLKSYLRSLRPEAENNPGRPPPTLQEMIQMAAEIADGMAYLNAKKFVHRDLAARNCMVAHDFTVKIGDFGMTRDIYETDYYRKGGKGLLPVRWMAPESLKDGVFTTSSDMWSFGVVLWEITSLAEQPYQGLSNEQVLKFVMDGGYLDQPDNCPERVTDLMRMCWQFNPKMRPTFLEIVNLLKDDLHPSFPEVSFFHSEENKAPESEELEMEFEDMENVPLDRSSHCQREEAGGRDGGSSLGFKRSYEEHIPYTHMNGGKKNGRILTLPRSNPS
UniProt O14713: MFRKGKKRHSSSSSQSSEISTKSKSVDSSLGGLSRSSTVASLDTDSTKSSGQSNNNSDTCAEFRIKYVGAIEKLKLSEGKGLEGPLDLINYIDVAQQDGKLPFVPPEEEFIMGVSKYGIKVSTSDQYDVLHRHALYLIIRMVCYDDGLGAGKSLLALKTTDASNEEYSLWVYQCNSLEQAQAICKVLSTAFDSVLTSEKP

Compound: CC1Cc2ccccc2N1C(=O)C1CCCN(C1)C(=O)CCl (mixture of isomers) [TRIM25 ligand 11 (diastereomer mixture)]
Assay: probe-labelled cysteine peptide fold change vs DMSO (competition) (log2 fold change); higher = less target engagement (more negative = stronger competition)
Details: THP-1, incubation time: 4 h
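Also: competitive chemoproteomic profiling in live THP-1 cells with an iodoacetamide desthiobiotin (IA-DTB) probe, comparing probe-labelled peptide intensities in compound-treated cells against DMSO-treated controls.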

| Target | probe-labelled cysteine peptide fold change (10 µM) | probe-labelled cysteine peptide fold change (50 µM) |
| --- | --- | --- |
| IQSEC1_Q6DN90_359_ADTDTSCR (UniProt Q6DN90) | -0.0256 | -0.0516 |
| ITGB2_P05107_590_RVECSGR (UniProt P05107) | 0.262 | 0.414 |
| INTS6_Q9UL03_347_KSPQTCWQVYVSNSAK (UniProt Q9UL03) | 0.0646 | 0.0812 |
| INTS5_Q6P9B9_821_AVAVTLVESVCPDAAGAELAWPPEEHAR (UniProt Q6P9B9) | 0.00893 | -0.195 |
| INTS2_Q9H0H0_272_GMVVEECHLPGLGVALTLDHTK (UniProt Q9H0H0) | 0.155 | 0.155 |
| IRF2BP2_Q7Z5L9_19_QSCYLCDLPR (UniProt Q7Z5L9) | -0.276 | -0.103 |
| INTS4_Q96HW7_109_TAGFSPDCIMDDAINILQNEK (UniProt Q96HW7) | 0.138 | -0.00119 |
| INTS7_Q9NVH2_352_LAQECCYHNNR (UniProt Q9NVH2) | 0.106 | 0.189 |
| ITGB1_P05556_516_HCECSTDEVNSEDMDAYCR (UniProt P05556) | -0.118 | -0.0717 |
| IRF2BP2_Q7Z5L9_16_QSCYLCDLPR (UniProt Q7Z5L9) | -0.0578 | -0.0183 |
| IPO7_O95373_504_CLIDDREMPVK (UniProt O95373) | -0.299 | -0.0557 |
| IRF2BP2_Q7Z5L9_506_EVGGQGAGNTGGLEPVHPASLPDSSLATSAPLCCTLCHER (UniProt Q7Z5L9) | 0.0496 | -0.283 |
| INTS2_Q9H0H0_1186+1188_DTGSMDPDVQLCHCIER (UniProt Q9H0H0) | 0.17 | 0.315 |
| IRF2BP2_Q7Z5L9_65_AHGCFPEGR (UniProt Q7Z5L9) | -0.0373 | -0.239 |
| ITGB2_P05107_628_YISCAECLK (UniProt P05107) | 0.197 | 0.375 |
| INTS11_Q5TA45_542_DHCVQHLPDGSVTVESVLLQAAAPSEDPGTK (UniProt Q5TA45) | 0.0652 | 0.0512 |
| ITGAX_P20702_722_AHCENFNLLLPSCVEDSVTPITLR (UniProt P20702) | -0.0743 | 0.357 |
| INTS13_Q9NVM9_134_ADPECCSILHGLVAAVETLCK (UniProt Q9NVM9) | 0.0397 | -0.0396 |

| Target | probe-labelled cysteine peptide fold change (10 µM) | probe-labelled cysteine peptide fold change (50 µM) |
| --- | --- | --- |
| INTS14_Q96SY0_193_LIDLNNGEGQIFTIDGPLCLK (UniProt Q96SY0) | -0.00669 | 0.031 |
| IRAK1_P51617_608_SWHLTPSCPLDPAPLR (UniProt P51617) | 0.202 | -0.117 |
| INTS3_Q68E01_843_YKEHPEALSCLLLQLR (UniProt Q68E01) | -0.202 | -0.197 |
| IPO7_O95373_90_NMITQYWPDRETAPGDISPYTIPEEDRHCIR (UniProt O95373) | -0.0447 | 0.0283 |
| ITGAL_P20701_1154_GVPNGIPAEDSEQLASGQEAGDPGCLK (UniProt P20701) | 0.0299 | -0.0274 |
| INTS12_Q96CB8_182_QMMVASGNQLVECQECHNLYHR (UniProt Q96CB8) | 0.138 | 0.00867 |
| ISG20L2_Q9H9L3_295_KADCPENATMSLK (UniProt Q9H9L3) | 0.0817 | -0.0591 |
| INPP5F_Q9Y2H2_725_DTLQCIAEMLQITK (UniProt Q9Y2H2) | 0.173 | 0.242 |
| IPO8_O15397_827_IQLPHNPGPITVQFINQWMNDTDCFLGHHDR (UniProt O15397) | 0.0633 | 0.252 |
| IQGAP3_Q86VI3_74_LGHCFAPSVVPLK (UniProt Q86VI3) | 0.0152 | 0.0451 |
| INSR_P06213_899_RYGDEELHLCVSR (UniProt P06213) | -0.0393 | 0.125 |
| ITGB1BP1_O14713_60_SSGQSNNNSDTCAEFR (UniProt O14713) | -0.172 | -0.318 |
| IPO4_Q8TEX9_95_ETEHCVSLSLAQLSATIFR (UniProt Q8TEX9) | -0.000253 | 0.0487 |
| INTS5_Q6P9B9_245_VLSCGLK (UniProt Q6P9B9) | -0.207 | -0.0661 |
| INTS14_Q96SY0_464_GVADMLERECTLLPETAHPDAAFQLTHAAQQLK (UniProt Q96SY0) | -0.188 | 0.158 |
| IRF2BP2_Q7Z5L9_16_RQSCYLCDLPR (UniProt Q7Z5L9) | -0.0675 | 0.0102 |
| INTS1_Q8N201_1534_SGEQCSVEPDLISK (UniProt Q8N201) | 0.0117 | 0.086 |

2 records drawn at random from the list so far, as already listed:

| Target | probe-labelled cysteine peptide fold change (10 µM) | probe-labelled cysteine peptide fold change (50 µM) |
| --- | --- | --- |
| IRF2BP2_Q7Z5L9_65_AHGCFPEGR (UniProt Q7Z5L9) | -0.0373 | -0.239 |
| INPP5F_Q9Y2H2_725_DTLQCIAEMLQITK (UniProt Q9Y2H2) | 0.173 | 0.242 |
